We go through six substances from article doi:10.1101/266833.

Amino acid sequences for entries named in this document (tags omitted).
UniProt P28007: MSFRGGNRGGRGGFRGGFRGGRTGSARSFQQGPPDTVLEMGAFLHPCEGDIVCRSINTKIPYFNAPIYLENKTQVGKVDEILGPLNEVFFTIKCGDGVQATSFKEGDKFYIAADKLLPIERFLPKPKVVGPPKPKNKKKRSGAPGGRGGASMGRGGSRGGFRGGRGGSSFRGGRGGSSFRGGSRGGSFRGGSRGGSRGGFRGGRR
UniProt P12385: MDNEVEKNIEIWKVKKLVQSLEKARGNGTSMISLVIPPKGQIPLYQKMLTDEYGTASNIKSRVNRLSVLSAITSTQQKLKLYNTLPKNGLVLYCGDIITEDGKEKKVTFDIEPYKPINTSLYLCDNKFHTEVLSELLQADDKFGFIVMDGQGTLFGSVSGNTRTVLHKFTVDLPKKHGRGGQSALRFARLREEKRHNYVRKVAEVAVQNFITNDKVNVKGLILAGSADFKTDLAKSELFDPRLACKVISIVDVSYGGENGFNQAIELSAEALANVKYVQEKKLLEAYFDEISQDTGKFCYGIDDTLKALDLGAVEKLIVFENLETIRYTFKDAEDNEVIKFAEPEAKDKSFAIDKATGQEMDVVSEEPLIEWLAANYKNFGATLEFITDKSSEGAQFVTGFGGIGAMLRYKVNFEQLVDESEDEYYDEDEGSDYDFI
UniProt P33322: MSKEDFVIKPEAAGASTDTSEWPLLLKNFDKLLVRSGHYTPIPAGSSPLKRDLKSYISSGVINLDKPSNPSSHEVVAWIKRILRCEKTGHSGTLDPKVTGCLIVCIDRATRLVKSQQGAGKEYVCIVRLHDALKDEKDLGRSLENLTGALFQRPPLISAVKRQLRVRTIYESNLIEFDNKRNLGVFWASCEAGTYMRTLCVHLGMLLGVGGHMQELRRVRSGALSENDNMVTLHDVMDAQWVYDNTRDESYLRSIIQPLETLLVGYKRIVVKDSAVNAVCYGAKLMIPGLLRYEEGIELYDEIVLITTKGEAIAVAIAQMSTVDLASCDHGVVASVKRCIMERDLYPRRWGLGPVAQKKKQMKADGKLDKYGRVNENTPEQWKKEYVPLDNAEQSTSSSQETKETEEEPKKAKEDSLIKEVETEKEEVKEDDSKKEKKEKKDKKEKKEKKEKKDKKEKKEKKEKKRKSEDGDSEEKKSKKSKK
UniProt P05030: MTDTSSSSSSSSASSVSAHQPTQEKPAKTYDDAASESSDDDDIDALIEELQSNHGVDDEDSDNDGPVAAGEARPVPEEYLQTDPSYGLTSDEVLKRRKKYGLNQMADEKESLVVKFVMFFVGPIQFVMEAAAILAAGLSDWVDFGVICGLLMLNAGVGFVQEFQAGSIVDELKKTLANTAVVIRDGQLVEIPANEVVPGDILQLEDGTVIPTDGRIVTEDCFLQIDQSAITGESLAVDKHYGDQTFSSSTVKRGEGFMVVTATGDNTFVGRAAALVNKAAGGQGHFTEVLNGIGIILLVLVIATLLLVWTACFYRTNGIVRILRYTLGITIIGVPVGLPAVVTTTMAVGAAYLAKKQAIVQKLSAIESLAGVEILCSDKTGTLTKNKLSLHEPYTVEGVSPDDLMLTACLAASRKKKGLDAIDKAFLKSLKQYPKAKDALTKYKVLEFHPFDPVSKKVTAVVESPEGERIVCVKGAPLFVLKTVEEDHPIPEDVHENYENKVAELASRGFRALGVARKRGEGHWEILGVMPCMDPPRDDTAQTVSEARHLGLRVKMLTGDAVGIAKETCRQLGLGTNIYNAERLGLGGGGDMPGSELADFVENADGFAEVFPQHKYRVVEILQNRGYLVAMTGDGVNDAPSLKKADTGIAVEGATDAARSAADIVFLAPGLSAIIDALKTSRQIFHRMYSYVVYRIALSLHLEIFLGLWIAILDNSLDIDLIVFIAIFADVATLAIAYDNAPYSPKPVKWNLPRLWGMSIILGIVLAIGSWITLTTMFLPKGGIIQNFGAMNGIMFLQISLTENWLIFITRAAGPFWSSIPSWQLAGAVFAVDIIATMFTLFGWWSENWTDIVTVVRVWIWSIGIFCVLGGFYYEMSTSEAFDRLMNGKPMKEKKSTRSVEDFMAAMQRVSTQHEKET
UniProt P00359: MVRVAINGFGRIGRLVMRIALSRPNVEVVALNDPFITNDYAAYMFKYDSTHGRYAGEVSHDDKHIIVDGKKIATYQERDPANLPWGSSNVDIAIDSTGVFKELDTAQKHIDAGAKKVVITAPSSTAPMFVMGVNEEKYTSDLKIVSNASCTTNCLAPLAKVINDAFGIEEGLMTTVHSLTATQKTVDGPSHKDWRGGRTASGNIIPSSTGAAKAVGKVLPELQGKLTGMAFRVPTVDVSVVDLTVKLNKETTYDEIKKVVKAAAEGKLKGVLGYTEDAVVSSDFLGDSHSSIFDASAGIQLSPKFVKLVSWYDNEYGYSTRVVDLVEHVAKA
UniProt P05453: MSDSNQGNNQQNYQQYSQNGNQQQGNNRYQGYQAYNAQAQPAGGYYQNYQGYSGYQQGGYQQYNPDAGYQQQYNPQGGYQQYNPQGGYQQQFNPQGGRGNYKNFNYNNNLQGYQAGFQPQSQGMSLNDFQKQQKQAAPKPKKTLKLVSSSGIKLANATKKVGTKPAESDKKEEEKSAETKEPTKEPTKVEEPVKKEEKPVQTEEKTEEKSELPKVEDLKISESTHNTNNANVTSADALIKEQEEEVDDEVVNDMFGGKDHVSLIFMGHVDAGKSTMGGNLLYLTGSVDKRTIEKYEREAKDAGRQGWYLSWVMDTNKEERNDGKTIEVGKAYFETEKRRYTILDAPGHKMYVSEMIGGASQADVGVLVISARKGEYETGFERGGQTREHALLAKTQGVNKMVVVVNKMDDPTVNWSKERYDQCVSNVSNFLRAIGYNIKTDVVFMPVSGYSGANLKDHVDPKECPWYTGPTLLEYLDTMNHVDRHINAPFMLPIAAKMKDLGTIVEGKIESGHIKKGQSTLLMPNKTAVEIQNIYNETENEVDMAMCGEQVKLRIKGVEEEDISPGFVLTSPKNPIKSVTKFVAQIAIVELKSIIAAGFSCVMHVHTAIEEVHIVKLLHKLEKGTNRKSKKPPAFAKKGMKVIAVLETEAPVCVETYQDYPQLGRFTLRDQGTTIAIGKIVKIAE

Results are given in words; binding and its absence hold for the method and conditions named. In cells and extracts the contact can be indirect. These calls come from enrichment with a bait or labelling near it, and not all partners need be listed. A no says only that the protein was not detected with the bait.

Holding throughout (assay): affinity purification with mass spectrometry
The target in one test is T1, Upf1-TAP (S. cerevisiae) (UniProt P30771).
T1 sequence: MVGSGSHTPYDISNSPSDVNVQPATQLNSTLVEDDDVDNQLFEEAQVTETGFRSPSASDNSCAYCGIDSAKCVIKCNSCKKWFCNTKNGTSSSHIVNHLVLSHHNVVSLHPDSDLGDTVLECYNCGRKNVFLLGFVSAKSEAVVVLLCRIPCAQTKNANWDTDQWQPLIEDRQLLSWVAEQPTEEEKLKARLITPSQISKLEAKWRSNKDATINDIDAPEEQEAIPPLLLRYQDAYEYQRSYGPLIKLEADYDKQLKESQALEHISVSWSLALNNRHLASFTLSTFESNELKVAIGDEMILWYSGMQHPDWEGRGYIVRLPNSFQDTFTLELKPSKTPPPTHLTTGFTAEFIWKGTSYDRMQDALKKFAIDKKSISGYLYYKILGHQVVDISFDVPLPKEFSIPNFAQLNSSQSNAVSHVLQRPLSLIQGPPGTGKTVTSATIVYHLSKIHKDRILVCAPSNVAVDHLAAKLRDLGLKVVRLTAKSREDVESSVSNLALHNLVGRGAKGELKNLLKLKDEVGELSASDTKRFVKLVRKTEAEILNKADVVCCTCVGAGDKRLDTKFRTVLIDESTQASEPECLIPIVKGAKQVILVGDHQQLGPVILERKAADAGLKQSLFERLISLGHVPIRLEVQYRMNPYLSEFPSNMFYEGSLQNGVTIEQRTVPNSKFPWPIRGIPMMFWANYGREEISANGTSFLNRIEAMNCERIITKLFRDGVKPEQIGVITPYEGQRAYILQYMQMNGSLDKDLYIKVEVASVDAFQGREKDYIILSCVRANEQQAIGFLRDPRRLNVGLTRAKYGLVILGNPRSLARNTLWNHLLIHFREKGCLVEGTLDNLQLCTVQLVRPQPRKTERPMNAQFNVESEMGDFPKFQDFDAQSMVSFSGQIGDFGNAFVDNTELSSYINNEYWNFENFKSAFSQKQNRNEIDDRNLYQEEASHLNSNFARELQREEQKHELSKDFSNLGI

For another test, the target named is T2, Upf2-TAP (S. cerevisiae) (UniProt P38798).
T2 sequence: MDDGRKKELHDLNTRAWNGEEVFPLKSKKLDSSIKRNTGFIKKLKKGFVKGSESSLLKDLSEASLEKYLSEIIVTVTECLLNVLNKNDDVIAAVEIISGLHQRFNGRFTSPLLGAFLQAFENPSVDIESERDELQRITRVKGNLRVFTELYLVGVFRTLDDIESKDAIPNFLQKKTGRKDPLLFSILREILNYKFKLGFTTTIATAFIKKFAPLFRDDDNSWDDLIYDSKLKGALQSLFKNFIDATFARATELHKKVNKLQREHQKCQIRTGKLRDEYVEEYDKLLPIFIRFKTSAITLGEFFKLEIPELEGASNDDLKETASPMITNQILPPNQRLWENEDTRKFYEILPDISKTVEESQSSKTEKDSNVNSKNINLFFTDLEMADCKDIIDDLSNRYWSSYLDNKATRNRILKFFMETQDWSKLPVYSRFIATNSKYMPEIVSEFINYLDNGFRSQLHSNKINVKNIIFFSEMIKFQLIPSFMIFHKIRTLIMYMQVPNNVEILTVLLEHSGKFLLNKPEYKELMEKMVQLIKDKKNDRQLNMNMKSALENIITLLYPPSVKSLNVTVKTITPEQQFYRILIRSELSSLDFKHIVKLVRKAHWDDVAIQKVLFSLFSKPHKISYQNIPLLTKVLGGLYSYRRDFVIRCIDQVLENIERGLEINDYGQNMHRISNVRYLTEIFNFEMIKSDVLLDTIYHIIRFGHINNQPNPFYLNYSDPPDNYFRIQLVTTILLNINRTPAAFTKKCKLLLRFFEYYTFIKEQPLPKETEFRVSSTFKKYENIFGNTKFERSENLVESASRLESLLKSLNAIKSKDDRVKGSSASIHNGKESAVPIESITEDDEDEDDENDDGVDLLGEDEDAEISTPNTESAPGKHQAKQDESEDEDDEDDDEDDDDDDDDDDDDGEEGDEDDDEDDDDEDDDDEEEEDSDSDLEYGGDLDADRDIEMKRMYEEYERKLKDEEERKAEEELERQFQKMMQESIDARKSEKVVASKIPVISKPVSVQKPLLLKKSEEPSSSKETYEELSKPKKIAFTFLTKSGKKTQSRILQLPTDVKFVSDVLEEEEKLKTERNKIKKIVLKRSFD

A further test has as its target T3, Upf3-TAP (S. cerevisiae) (UniProt P48412).
T3 sequence: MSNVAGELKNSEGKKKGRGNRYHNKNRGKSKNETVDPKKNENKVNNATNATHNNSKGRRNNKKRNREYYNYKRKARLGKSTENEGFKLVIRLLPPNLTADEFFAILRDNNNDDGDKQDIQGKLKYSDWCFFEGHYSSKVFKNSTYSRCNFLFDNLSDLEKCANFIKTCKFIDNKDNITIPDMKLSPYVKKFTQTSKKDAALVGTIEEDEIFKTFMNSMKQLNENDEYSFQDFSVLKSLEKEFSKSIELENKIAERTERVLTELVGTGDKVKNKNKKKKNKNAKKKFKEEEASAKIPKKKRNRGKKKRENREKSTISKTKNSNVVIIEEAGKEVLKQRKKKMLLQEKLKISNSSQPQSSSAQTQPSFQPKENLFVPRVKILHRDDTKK

Gar1 (from UniProt P28007 1-205): in the test with Upf1-TAP (S. cerevisiae), the binding result is listed as “binds”.
In the case of “eRF1 (yeast Sup45) (from UniProt P12385 1-437)”, the binding result with Upf2-TAP (S. cerevisiae) and in the test with Upf3-TAP (S. cerevisiae) was “no binding” throughout.
As for Cbf5 (from UniProt P33322 1-483), the binding result in the test with Upf1-TAP (S. cerevisiae) is on record as “binds”.
As for Pma1 (from UniProt P05030 1-918), the binding entry in the test with Upf1-TAP (S. cerevisiae) is listed as “no binding”.
Still for that read-out and setting: to “Tdh3 (from UniProt P00359 1-332) (enzyme)” belongs “no binding”.
In the case of “eRF3 (yeast Sup35) (from UniProt P05453 1-685)”, the binding result in the test with Upf2-TAP (S. cerevisiae) and with Upf3-TAP (S. cerevisiae) was “no binding” in each case.
